Results are given in words; binding and its absence hold for the method and conditions named. In cells and extracts the contact can be indirect. Some binding calls cover weakened binding; strength is not graded here.
Target: GFP-tagged TFEB (pEGFP-N1-TFEB) (human) (UniProt P19484)
Assay: co-IP; HEK293T cells transfected with GFP-FOXO1 or pEGFP-N1-TFEB, treated with 20 uM LY294002 for 48 h; GFP-Trap resin; 50 mM HEPES pH 7.4, 150 mM KCl, 0.5% NP-40; western blot anti-GFP, anti-FOXO1, anti-FOXO3A, anti-TFEB

Sequences of proteins named here, by UniProt entry; tags and fusion partners are left off.
UniProt P19484: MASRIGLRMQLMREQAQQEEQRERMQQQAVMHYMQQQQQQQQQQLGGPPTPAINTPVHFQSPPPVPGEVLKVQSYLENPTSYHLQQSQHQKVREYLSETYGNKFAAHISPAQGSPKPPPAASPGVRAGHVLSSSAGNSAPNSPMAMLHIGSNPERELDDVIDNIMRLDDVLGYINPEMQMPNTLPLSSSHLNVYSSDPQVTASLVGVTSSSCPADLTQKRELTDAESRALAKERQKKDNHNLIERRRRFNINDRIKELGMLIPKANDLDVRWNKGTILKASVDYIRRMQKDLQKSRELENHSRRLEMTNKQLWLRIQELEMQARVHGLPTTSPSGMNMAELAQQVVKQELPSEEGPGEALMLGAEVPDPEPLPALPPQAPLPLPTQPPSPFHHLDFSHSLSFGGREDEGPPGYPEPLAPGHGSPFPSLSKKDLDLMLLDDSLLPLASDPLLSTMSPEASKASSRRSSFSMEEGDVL
UniProt O43524: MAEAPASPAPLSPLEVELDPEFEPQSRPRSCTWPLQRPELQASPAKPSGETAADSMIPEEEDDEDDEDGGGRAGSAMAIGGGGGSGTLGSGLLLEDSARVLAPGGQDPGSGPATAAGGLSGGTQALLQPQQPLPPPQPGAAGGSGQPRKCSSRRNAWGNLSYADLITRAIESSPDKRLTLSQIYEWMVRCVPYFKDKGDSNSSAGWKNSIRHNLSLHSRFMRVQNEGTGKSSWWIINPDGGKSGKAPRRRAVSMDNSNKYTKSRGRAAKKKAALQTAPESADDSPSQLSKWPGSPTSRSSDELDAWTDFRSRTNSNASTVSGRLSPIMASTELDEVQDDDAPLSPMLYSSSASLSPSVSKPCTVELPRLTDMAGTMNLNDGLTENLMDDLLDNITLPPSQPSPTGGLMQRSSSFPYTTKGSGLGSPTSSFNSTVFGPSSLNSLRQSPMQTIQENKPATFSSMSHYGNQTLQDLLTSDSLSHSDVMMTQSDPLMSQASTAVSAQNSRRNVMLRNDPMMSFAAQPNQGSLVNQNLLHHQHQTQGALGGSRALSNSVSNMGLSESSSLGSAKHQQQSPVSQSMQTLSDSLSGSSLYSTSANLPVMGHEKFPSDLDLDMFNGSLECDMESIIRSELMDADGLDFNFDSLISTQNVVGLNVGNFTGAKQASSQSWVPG
UniProt Q12778: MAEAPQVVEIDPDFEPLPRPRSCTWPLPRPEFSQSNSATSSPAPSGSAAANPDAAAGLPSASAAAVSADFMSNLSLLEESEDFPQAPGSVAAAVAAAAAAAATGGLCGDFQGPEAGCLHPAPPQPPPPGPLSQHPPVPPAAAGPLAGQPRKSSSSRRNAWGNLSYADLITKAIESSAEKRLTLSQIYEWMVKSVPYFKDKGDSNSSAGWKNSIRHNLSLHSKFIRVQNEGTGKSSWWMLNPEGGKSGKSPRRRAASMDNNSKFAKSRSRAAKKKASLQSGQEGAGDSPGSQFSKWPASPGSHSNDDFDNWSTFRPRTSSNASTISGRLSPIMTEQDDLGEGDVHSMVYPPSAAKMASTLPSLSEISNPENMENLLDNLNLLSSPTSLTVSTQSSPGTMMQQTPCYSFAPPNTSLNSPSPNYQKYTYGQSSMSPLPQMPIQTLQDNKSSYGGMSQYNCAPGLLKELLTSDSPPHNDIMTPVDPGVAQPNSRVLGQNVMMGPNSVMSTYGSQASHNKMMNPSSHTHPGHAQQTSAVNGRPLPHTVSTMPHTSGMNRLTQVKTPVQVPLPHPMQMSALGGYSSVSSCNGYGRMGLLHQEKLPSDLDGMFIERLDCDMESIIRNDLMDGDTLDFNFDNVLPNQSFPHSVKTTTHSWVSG

FOXO3 (from UniProt O43524 1-673) was tested, and the binding was “no binding”.
FOXO1 (from UniProt Q12778 1-655) was tested, and the binding was “binds”.

— article PMC6199276
